Article PMC10047773

Protein sequences, listed by entry. Tags and fused reporters are not part of them. Residues count along the entry.
UniProt P02686, residues 134-304: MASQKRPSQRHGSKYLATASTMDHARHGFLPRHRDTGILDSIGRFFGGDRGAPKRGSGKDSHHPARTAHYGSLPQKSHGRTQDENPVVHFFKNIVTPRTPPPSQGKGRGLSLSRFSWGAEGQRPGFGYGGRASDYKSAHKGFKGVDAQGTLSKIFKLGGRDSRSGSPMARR
UniProt Q14204: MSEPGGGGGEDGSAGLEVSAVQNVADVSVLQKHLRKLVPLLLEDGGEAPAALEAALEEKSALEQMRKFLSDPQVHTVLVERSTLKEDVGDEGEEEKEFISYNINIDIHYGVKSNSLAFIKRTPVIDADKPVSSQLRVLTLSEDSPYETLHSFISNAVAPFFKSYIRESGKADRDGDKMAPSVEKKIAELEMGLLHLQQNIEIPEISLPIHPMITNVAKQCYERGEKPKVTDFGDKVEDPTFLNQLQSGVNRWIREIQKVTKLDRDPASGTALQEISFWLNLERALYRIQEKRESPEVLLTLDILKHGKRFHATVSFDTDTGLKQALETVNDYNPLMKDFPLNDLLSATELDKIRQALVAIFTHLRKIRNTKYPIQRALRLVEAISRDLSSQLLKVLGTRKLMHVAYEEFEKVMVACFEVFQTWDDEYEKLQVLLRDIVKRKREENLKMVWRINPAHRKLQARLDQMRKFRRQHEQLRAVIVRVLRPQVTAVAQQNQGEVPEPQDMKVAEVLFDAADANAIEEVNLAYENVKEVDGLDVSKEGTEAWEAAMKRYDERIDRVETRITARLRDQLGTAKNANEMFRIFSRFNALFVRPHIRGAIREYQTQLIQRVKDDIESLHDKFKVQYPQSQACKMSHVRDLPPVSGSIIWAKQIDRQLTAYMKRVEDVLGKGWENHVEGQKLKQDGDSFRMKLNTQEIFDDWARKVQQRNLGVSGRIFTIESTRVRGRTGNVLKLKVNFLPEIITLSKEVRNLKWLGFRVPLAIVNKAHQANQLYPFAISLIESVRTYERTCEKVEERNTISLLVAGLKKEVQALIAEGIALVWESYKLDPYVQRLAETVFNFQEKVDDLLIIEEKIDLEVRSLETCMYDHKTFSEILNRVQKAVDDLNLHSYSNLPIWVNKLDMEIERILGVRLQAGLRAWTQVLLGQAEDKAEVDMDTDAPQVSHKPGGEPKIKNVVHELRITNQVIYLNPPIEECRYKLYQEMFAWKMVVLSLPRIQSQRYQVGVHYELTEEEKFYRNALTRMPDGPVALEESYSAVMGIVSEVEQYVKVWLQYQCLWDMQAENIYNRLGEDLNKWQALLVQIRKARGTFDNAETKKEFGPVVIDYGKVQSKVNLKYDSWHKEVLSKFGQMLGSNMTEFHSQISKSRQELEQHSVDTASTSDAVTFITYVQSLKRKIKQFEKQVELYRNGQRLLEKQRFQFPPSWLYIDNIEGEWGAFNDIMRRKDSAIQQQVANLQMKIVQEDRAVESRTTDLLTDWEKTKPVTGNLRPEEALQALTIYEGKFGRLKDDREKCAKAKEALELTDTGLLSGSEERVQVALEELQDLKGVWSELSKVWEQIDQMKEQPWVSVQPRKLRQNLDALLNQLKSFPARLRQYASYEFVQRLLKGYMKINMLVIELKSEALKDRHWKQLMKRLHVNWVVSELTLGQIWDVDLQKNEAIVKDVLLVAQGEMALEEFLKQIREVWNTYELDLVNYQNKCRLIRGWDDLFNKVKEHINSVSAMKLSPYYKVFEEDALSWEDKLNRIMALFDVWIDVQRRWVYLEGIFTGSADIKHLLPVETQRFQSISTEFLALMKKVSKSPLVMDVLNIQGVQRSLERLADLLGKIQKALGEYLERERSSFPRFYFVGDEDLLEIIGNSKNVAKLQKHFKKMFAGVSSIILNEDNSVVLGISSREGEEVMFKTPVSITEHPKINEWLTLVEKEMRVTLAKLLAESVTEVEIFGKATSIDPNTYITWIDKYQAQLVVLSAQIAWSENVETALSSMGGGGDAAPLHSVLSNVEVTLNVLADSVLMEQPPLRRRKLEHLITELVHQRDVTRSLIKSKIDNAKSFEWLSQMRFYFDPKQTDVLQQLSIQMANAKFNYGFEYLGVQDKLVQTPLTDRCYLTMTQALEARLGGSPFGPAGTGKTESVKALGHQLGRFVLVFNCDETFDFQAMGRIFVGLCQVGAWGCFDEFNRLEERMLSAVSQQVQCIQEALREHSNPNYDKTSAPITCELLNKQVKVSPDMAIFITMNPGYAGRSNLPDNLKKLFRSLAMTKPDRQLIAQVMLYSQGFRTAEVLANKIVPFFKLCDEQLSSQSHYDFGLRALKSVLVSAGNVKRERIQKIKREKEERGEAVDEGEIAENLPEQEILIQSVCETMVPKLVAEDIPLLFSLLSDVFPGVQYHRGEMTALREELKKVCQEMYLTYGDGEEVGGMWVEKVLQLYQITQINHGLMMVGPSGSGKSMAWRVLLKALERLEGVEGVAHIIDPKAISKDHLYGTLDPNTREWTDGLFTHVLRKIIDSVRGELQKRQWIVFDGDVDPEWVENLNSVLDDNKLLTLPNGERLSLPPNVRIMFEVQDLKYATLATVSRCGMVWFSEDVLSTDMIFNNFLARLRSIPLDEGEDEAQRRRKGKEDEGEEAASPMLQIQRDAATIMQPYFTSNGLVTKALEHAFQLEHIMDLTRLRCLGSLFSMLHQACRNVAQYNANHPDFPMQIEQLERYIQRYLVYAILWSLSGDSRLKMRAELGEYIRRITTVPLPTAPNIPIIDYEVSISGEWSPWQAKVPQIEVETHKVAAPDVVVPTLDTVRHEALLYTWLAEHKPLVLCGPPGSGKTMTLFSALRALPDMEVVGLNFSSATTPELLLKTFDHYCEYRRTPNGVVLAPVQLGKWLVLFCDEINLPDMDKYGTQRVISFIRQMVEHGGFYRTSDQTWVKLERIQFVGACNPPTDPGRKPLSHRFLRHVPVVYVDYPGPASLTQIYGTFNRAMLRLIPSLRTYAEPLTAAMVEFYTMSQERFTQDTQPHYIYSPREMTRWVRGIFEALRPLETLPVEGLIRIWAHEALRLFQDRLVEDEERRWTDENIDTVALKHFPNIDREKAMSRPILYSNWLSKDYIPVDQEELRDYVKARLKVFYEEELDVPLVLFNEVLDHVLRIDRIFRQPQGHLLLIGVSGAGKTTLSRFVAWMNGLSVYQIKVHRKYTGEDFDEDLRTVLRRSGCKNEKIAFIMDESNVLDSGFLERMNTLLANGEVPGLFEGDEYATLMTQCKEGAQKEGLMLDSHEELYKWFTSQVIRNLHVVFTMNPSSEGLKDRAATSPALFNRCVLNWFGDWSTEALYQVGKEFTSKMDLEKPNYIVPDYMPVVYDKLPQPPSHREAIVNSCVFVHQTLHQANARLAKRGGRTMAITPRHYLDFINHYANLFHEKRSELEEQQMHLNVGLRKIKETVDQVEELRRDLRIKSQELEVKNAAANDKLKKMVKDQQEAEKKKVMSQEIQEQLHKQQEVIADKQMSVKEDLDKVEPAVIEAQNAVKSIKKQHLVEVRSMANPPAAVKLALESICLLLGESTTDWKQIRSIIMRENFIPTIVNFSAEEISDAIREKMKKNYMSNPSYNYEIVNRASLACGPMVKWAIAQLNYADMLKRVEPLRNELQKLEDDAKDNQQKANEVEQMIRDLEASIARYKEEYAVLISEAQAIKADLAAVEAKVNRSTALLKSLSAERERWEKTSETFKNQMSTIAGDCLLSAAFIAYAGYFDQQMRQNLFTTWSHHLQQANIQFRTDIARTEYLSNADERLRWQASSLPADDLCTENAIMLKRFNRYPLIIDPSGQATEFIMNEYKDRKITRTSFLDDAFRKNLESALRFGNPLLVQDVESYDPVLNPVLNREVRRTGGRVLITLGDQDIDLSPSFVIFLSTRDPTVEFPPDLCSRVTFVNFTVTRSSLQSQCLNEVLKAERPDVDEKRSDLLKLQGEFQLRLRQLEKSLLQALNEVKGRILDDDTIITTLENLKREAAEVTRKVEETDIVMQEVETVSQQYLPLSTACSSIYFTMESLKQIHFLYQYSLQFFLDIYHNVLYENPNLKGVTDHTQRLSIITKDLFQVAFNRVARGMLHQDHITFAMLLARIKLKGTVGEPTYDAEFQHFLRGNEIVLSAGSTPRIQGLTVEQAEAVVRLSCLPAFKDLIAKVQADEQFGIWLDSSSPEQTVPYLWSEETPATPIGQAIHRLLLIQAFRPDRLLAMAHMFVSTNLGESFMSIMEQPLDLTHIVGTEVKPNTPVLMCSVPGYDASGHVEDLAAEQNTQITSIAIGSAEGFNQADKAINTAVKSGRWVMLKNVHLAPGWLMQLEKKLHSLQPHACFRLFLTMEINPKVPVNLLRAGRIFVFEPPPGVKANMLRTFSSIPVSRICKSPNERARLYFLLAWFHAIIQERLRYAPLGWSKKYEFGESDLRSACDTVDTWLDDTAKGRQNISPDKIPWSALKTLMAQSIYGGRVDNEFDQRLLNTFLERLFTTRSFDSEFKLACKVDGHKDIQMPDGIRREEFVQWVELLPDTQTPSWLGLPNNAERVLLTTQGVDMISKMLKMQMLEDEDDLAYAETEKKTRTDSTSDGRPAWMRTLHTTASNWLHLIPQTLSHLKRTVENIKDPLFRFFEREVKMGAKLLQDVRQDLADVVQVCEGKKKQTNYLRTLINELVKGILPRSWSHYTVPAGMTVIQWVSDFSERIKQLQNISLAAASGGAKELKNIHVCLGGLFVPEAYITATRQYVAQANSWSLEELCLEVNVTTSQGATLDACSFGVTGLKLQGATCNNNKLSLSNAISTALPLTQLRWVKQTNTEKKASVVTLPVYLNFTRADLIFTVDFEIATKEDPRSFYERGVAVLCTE
UniProt P26038: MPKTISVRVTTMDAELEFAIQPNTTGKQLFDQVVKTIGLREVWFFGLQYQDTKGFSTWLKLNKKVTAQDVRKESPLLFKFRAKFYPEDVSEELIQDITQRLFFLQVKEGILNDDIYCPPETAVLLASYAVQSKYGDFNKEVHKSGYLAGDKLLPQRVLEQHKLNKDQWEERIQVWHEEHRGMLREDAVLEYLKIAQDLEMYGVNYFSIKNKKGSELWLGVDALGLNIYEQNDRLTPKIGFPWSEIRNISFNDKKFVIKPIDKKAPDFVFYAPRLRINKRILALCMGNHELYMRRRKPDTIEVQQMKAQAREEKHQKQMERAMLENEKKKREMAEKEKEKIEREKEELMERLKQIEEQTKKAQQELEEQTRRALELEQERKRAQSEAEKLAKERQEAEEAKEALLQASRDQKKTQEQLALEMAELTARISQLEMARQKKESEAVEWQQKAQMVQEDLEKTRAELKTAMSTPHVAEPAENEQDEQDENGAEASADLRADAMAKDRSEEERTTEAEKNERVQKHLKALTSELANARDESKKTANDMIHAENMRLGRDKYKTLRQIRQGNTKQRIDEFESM
UniProt O00161: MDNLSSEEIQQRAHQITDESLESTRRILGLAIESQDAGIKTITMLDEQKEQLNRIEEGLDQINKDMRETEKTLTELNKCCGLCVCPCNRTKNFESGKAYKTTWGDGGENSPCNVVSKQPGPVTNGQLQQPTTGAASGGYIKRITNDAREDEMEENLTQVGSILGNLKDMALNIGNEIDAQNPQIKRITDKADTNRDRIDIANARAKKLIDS

Molecular target: Myelin basic protein, classical 18.5 kDa isoform, fused to FLAG-tag and TurboID (MBP_Flag_TurboID) (human) (UniProt P02686)
Experiment: proximity labelling; TurboID fused to the bait in transfected HEK293T cells; 50 uM biotin for 30 min (methods; 15 min in the results); RIPA lysis; streptavidin-agarose; SDS-PAGE, in-gel trypsin, LC-MS/MS; hits in at least two repeats and two or more times over the Flag_TurboID control; triplicates

Molecule	binding
Cytoplasmic dynein 1 heavy chain 1 (from UniProt Q14204 1-4646)	binds
Moesin (from UniProt P26038 1-577)	binds
Myelin protein zero-like protein 1 (protein, UniProt O95297 36-269) SALEVYTPKEIFVANGTQGKLTCKFKSTSTTGGLTSVSWSFQPEGADTTVSFFHYSQGQVYLGNYPPFKDRISWAGDLDKKDASINIENMQFIHNGTYICDVKNPPDIVVQPGHIRLYVVEKENLPVFPVWVVVGIVTAVVLGLTLLISMILAVLYRRKNSKRDYTGCSTSESLSPVKQAPRKSPSDTEGLVKSLPSGSHQGPVIYAQLDHSGGHHSDKINKSESVVYADIRKN	binds
Ephrin-B1 (protein, UniProt P98172 28-346) LAKNLEPVSWSSLNPKFLSGKGLVIYPKIGDKLDIICPRAEAGRPYEYYKLYLVRPEQAAACSTVLDPNVLVTCNRPEQEIRFTIKFQEFSPNYMGLEFKKHHDYYITSTSNGSLEGLENREGGVCRTRTMKIIMKVGQDPNAVTPEQLTTSRPSKEADNTVKMATQAPGSRGSLGDSDGKHETVNQEEKSGPGASGGSSGDPDGFFNSKVALFAAVGAGCVIFLLIIIFLTVLLLKLRKRHRKHTQQRAAALSLSTLASPKGGSGTAGTEPSDIIIPLRTTENNYCPHYEKVSGDYGHPVYIVQEMPPQSPANIYYKV	binds
Ganglioside GM2 activator (protein, UniProt P17900 32-193) SSFSWDNCDEGKDPAVIRSLTLEPDPIIVPGNVTLSVMGSTSVPLSSPLKVDLVLEKEVAGLWIKIPCTDYIGSCTFEHFCDVLDMLIPTGEPCPEPLRTYGLPCHCPFKEGTYSLPKSEFVVPDLELPSWLTTGNYRIESVLSSSGKRLGCIKIAASLKGI	binds
NADH-cytochrome b5 reductase 1 (enzyme, UniProt Q9UHQ9 1-305) MGIQTSPVLLASLGVGLVTLLGLAVGSYLVRRSRRPQVTLLDPNEKYLLRLLDKTTVSHNTKRFRFALPTAHHTLGLPVGKHIYLSTRIDGSLVIRPYTPVTSDEDQGYVDLVIKVYLKGVHPKFPEGGKMSQYLDSLKVGDVVEFRGPSGLLTYTGKGHFNIQPNKKSPPEPRVAKKLGMIAGGTGITPMLQLIRAILKVPEDPTQCFLLFANQTEKDIILREDLEELQARYPNRFKLWFTLDHPPKDWAYSKGFVTADMIREHLPAPGDDVLVLLCGPPPMVQLACHPNLDKLGYSQKMRFTY	binds

Other lines, results leading:

binding	Molecule
binds	Synaptosomal-associated protein 23 (from UniProt O00161 1-211)
binds	Occludin (protein, UniProt Q16625 1-522) MSSRPLESPPPYRPDEFKPNHYAPSNDIYGGEMHVRPMLSQPAYSFYPEDEILHFYKWTSPPGVIRILSMLIIVMCIAIFACVASTLAWDRGYGTSLLGGSVGYPYGGSGFGSYGSGYGYGYGYGYGYGGYTDPRAAKGFMLAMAAFCFIAALVIFVTSVIRSEMSRTRRYYLSVIIVSAILGIMVFIATIVYIMGVNPTAQSSGSLYGSQIYALCNQFYTPAATGLYVDQYLYHYCVVDPQEAIAIVLGFMIIVAFALIIFFAVKTRRKMDRYDKSNILWDKEHIYDEQPPNVEEWVKNVSAGTQDVPSPPSDYVERVDSPMAYSSNGKVNDKRFYPESSYKSTPVPEVVQELPLTSPVDDFRQPRYSSGGNFETPSKRAPAKGRAGRSKRTEQDHYETDYTTGGESCDELEEDWIREYPPITSDQQRQLYKRNFDTGLQEYKSLQSELDEINKELSRLDKELDDYREESEEYMAAADEYNRLKQVKGSADYKSKKNHCKQLKSKLSHIKKMVGDYDRQKT
binds	Sodium-coupled neutral amino acid transporter 1 (protein, UniProt Q9H2H9 1-487) MMHFKSGLELTELQNMTVPEDDNISNDSNDFTEVENGQINSKFISDRESRRSLTNSHLEKKKCDEYIPGTTSLGMSVFNLSNAIMGSGILGLAFALANTGILLFLVLLTSVTLLSIYSINLLLICSKETGCMVYEKLGEQVFGTTGKFVIFGATSLQNTGAMLSYLFIVKNELPSAIKFLMGKEETFSAWYVDGRVLVVIVTFGIILPLCLLKNLGYLGYTSGFSLSCMVFFLIVVIYKKFQIPCIVPELNSTISANSTNADTCTPKYVTFNSKTVYALPTIAFAFVCHPSVLPIYSELKDRSQKKMQMVSNISFFAMFVMYFLTAIFGYLTFYDNVQSDLLHKYQSKDDILILTVRLAVIVAVILTVPVLFFTVRSSLFELAKKTKFNLCRHTVVTCILLVVINLLVIFIPSMKDIFGVVGVTSANMLIFILPSSLYLKITDQDGDKGTQRIWAALFLGLGVLFSLVSIPLVIYDWACSSSSDEGH
binds	Solute carrier family transporter ZIP6 (protein, UniProt Q13433 29-755) FPQTTEKISPNWESGINVDLAISTRQYHLQQLFYRYGENNSLSVEGFRKLLQNIGIDKIKRIHIHHDHDHHSDHEHHSDHERHSDHEHHSEHEHHSDHDHHSHHNHAASGKNKRKALCPDHDSDSSGKDPRNSQGKGAHRPEHASGRRNVKDSVSASEVTSTVYNTVSEGTHFLETIETPRPGKLFPKDVSSSTPPSVTSKSRVSRLAGRKTNESVSEPRKGFMYSRNTNENPQECFNASKLLTSHGMGIQVPLNATEFNYLCPAIINQIDARSCLIHTSEKKAEIPPKTYSLQIAWVGGFIAISIISFLSLLGVILVPLMNRVFFKFLLSFLVALAVGTLSGDAFLHLLPHSHASHHHSHSHEEPAMEMKRGPLFSHLSSQNIEESAYFDSTWKGLTALGGLYFMFLVEHVLTLIKQFKDKKKKNQKKPENDDDVEIKKQLSKYESQLSTNEEKVDTDDRTEGYLRADSQEPSHFDSQQPAVLEEEEVMIAHAHPQEVYNEYVPRGCKNKCHSHFHDTLGQSDDLIHHHHDYHHILHHHHHQNHHPHSHSQRYSREELKDAGVATLAWMVIMGDGLHNFSDGLAIGAAFTEGLSSGLSTSVAVFCHELPHELGDFAVLLKAGMTVKQAVLYNALSAMLAYLGMATGIFIGHYAENVSMWIFALTAGLFMYVALVDMVPEMLHNDASDHGCSRWGYFFLQNAGMLLGFGIMLLISIFEHKIVFRINF
binds	TBC1 (Tre2/Bub2/Cdc16) domain family member 10A (protein, UniProt Q9BXI6 1-508) MAKSNGENGPRAPAAGESLSGTRESLAQGPDAATTDELSSLGSDSEANGFAERRIDKFGFIVGSQGAEGALEEVPLEVLRQRESKWLDMLNNWDKWMAKKHKKIRLRCQKGIPPSLRGRAWQYLSGGKVKLQQNPGKFDELDMSPGDPKWLDVIERDLHRQFPFHEMFVSRGGHGQQDLFRVLKAYTLYRPEEGYCQAQAPIAAVLLMHMPAEQAFWCLVQICEKYLPGYYSEKLEAIQLDGEILFSLLQKVSPVAHKHLSRQKIDPLLYMTEWFMCAFSRTLPWSSVLRVWDMFFCEGVKIIFRVGLVLLKHALGSPEKVKACQGQYETIERLRSLSPKIMQEAFLVQEVVELPVTERQIEREHLIQLRRWQETRGELQCRSPPRLHGAKAILDAEPGPRPALQPSPSIRLPLDAPLPGSKAKPKPPKQAQKEQRKQMKGRGQLEKPPAPNQAMVVAAAGDACPPQHVPPKDSAPKDSAPQDLAPQVSAHHRSQESLTSQESEDTYL
binds	Syntaxin-binding protein 3 (protein, UniProt O00186 1-592) MAPPVAERGLKSVVWQKIKATVFDDCKKEGEWKIMLLDEFTTKLLASCCKMTDLLEEGITVVENIYKNREPVRQMKALYFITPTSKSVDCFLHDFASKSENKYKAAYIYFTDFCPDNLFNKIKASCSKSIRRCKEINISFIPHESQVYTLDVPDAFYYCYSPDPGNAKGKDAIMETMADQIVTVCATLDENPGVRYKSKPLDNASKLAQLVEKKLEDYYKIDEKSLIKGKTHSQLLIIDRGFDPVSTVLHELTFQAMAYDLLPIENDTYKYKTDGKEKEAILEEEDDLWVRIRHRHIAVVLEEIPKLMKEISSTKKATEGKTSLSALTQLMKKMPHFRKQITKQVVHLNLAEDCMNKFKLNIEKLCKTEQDLALGTDAEGQKVKDSMRVLLPVLLNKNHDNCDKIRAILLYIFSINGTTEENLDRLIQNVKIENESDMIRNWSYLGVPIVPQSQQGKPLRKDRSAEETFQLSRWTPFIKDIMEDAIDNRLDSKEWPYCSQCPAVWNGSGAVSARQKPRANYLEDRKNGSKLIVFVIGGITYSEVRCAYEVSQAHKSCEVIIGSTHVLTPKKLLDDIKMLNKPKDKVSLIKDE

No constants are given. Whether binding was seen depends on the method and setting. In cells and extracts the contact can be indirect. Here binding means that the protein was enriched with, or labelled near, the bait; the list need not be complete.
